Reference: patent US9635857B2, “Tetrazolinone compound and use thereof” (SUMITOMO CHEMICAL COMPANY, LIMITED, priority 2013, dated 2017)
Some entries share one result that the patent states for a list of compounds. At least one structure is not confirmed: it was looked up by name or label, or the drawing left a doubt.

Tests used:
Assay type in all cases: in vivo
[1] = test system: cucumber anthracnose fungus (Colletotrichum lagenarium); test: Test Example 10: cucumber anthracnose control, foliar spray on cucumber; conditions: 200 ppm sprayed on cucumber (SAGAMI HANJIRO); inoculated after 1 day; assessed after 1 + 6 days
[2] = test system: wheat leaf blotch fungus (Septoria tritici); test: Test Example 5: wheat leaf blotch control, foliar spray on wheat; conditions: 500 ppm sprayed on wheat (APOGEE); inoculated after 4 days; assessed after 3 days + 14 to 18 days
[3] = test system: barley scald fungus (Rhynchosporium secalis); test: Test Example 8: barley scald control, foliar spray on barley; conditions: 200 ppm water dilution containing a surfactant sprayed on barley (NISHINOHOSHI); inoculated after 2 days; assessed after 3 + 7 days
[4] = test system: cucumber target leaf spot fungus (Corynespora cassiicola); test: Test Example 9: cucumber target leaf spot control, foliar spray on cucumber; conditions: 200 ppm sprayed on cucumber (SAGAMI HANJIRO); inoculated after 1 day; assessed after 7 days
[5] = test system: cucumber powdery mildew fungus (Sphaerotheca fuliginea); test: Test Example 6: cucumber powdery mildew control, foliar spray on cucumber; conditions: 500 ppm sprayed on cucumber (SAGAMI HANJIRO); assessed 8 days after inoculation
[6] = test system: kidney bean stem rot fungus (Sclerotinia sclerotiorum); test: Test Example 4: kidney bean stem rot control, foliar spray on kidney bean; conditions: 500 ppm sprayed on kidney bean (NAGAUZURA SAIYTOU); assessed four days after inoculation

Measured: area of lesion on the treated plant relative to that on an untreated plant

CON=C(C)c1ccc(C)c(OCc2c(C)cccc2-n2nnn(C)c2=O)c1 [compound 7]
≤ 30%: all assays above

CC(=NOC(C)(C)C)c1cccc(OCc2c(C)cccc2-n2nnn(C)c2=O)c1 [compound 14]
not listed: [6]
≤ 30%: all other assays above

CCC(C)ON=C(C)c1cccc(OCc2c(C)cccc2-n2nnn(C)c2=O)c1 (stereo not drawn) [compound 17]
≤ 30%: [1] | [4]

CCON=C(C)c1ccc(C)c(OCc2c(C)cccc2-n2nnn(C)c2=O)c1 [compound 19]
not listed: [6]
≤ 30%: all other assays above

C=CCON=C(C)c1ccc(C)c(OCc2c(C)cccc2-n2nnn(C)c2=O)c1 [compound 21]
not listed: [6]
≤ 30%: all other assays above

CC(=NOC(C)(C)C)c1ccc(C)c(OCc2c(C)cccc2-n2nnn(C)c2=O)c1 [compound 22]
not listed: [6]
≤ 30%: all other assays above

CON=C(c1ccccc1)c1cccc(OCc2c(C)cccc2-n2nnn(C)c2=O)c1 [compound 23]
not listed: [6]
≤ 30%: all other assays above

CCON=C(c1ccccc1)c1cccc(OCc2c(C)cccc2-n2nnn(C)c2=O)c1 [compound 24]
not listed: [6]
≤ 30%: all other assays above

C=CCON=C(c1ccccc1)c1cccc(OCc2c(C)cccc2-n2nnn(C)c2=O)c1 [compound 25]
not listed: [6]
≤ 30%: all other assays above

CCCCC(=NOC)c1cccc(OCc2c(C3CC3)cccc2-n2nnn(C)c2=O)c1 [compound 28]
not listed: [6]
≤ 30%: all other assays above
